Values after ≈ are worked out from the molar mass of the structure shown.
System: MCF-7 (human breast cancer cells)
Assay: MTT inhibition of cell growth in vitro, MCF-7
Type: cell-based
Details: MCF7, MCF-7, MTT, 48 h, read-out: IC50 values of samples in vitro
Text: (1) Cell lines: PANC-1 (human pancreatic cancer cells), SKOV3 (human ovarian cancer cells), MCF-7 (human breast cancer cells), Bcap-37 (human breast cancer cells), SMMC-7721 (human hepatic cancer cells), HepG-2 (human hepatic cancer cells), A549 (human lung cancer cells) and H460 (human lung cancer cells), storaged and passaged maintainably in Research and Evaluation Center for Pharmacology, Shanghai Institute of Pharmaceutical Industry;
The inhibition effects of samples on the above-mentioned cell lines were detected by using MTT method. The specific procedures were as follows: […]
(4) Cells in a logarithmic growth stage were trypsinized and washed, then re-suspended in the medium containing 10% calf serum. The number of living cells was counted in Trypan blue dye exclusion method and cell suspensions were adjusted into a density of 2×10^5 cell/ml. […]
(7) 100 μl of crystal dissolving solution was added into each well and cells were incubated continuously in the incubator overnight, so as to dissolve the resulted formazan crystals sufficiently. Then, the absorbance value was measured at 570 nm for each well.
(8) Based on absorbance values, inhibition rates on the cell growth were calculated for sample groups of various concentrations. The calculation formula was as follows: (1−mean absorbance of experimental wells/mean absorbance of control wells)×100%

CC(=O)O[C@H]1C(=O)[C@@]2(C)[C@H]([C@H](OC(=O)c3ccccc3)[C@]3(O)C[C@H](OC(=O)[C@H](O)[C@@H](NC(=O)c4ccccc4)c4ccccc4)C(C)=C1C3(C)C)[C@]1(OC(C)=O)CO[C@@H]1C[C@@H]2O [Taxol]
IC50: 0.34 mg/L (≈ 0.398 µM)
